The subject of this experiment is human neural stem cells (hNSCs). Put plainly: Neuronal differentiation of human neural stem cells (TUJ-1 staining). The following applies: Neural stem cell, agent alone, hNSC, data as % of neuronal positive control, basal media subtracted. The class given is cell-based. The source says:
Mitogen-free test media with a positive control was used for neuronal differentiation, and basal media without growth factors served as a negative control.
Mitogen-free test media with a positive control for neuronal differentiation was used, and basal media without growth factors served as a negative control.
Human neural stem cells (hNSCs) were isolated and grown in monolayer culture, plated, treated with varying concentrations of buspirone in the presence or absence of the melatonin agonist melatonin, and stained with TUJ-1 antibody for the detection of neuronal differentiation or GFAP antibody for the detection of astrocyte differentiation, as described above. Mitogen-free test media with a positive control for neuronal differentiation was used along with basal media without growth factors as a negative control.
Human neural stem cells (hNSCs) were isolated and grown in monolayer culture, plated, treated with varying concentrations of a 5-HT3 antagonist and stained with TUJ-1 antibody, as described above. […]
The presence of synergy was determined by use of a combination index (CI). […] The CI is a quantitative measure of the nature of drug interactions, comparing the EC50's of two compounds, when each is assayed alone, to the EC50 of each compound when assayed in combination. […]

Take `CN1CCN(C2=Nc3cc(Cl)ccc3Nc3ccccc32)CC1` [clozapine]: the EC50 is 3.6 µM.

Values taken from patent US7678808B2, “5 HT receptor mediated neurogenesis” (BrainCells, Inc., priority 2006, dated 2010).
